{"source": "PubChem BioAssay AID922", "about": "(National Center for Advancing Translational Sciences (NCATS), 2007)", "note": "The inconclusive results got no clear call from the source; some entries with a clear call stand among them for comparison. Potencies of inconclusive entries are doubtful fits and often do not repeat. A note “side channel” means that the fit belongs to a control or component signal, not to the main read-out. Calls of active or inactive are those of the source. The call rests on the fitted dose curve; in most records, active means well fitted inhibition curve with a large enough effect in the signal ratio, with a control signal flat; inconclusive means small, poorly fitted or top-dose-only effect, or effect the other way; inactive means flat fitted curve, though single readings scatter; the % refers to the signal ratio.", "data": [{"test": "Confirmation Concentration-Response Assay for Identification of Small Molecule Antagonists of Stat Signaling Pathway", "settings": "SIE-bla cells, IL-6 stimulated, beta-lactamase ratio, 5 h; activity change, negative = inhibition: at 38.3 µM (top of the series)", "source_text": "NIH Molecular Libraries Screening Centers Network [MLSCN] NIH Chemical Genomics Center [NCGC] MLSCN Grant: None NCGC Assay Overview: This assay is a retest of actives identified from the Stat signaling pathway assay (PubChem AID 446). The Stat assay is cell-based and measures Interleukin 6 (IL-6) mediated modulation of a beta-lactamase reporter gene controlled by a STAT inducible element (SIE-bla cells, Invitrogen). IL-6 is a cytokine that signals via the JAK/STAT pathway and is implicated in cancer and inflammation. SIE-bla cells are induced by IL-6 at 40 pM EC50 and inhibited by the pan JAK inhibitor, 2-(1,1-Dimethylethyl)-9-fluoro-3,6-dihydro-7H-benz[h]-imidaz[4,5-f]isoquinolin-7-one, at approximately 10 nM IC50. Plated cells were incubated overnight and on the following day, stimulated with 40 pM IL-6 for 5 hrs. The assay was stimulated with an EC50 of IL-6 to retest inhibitors of STAT signaling.\nNCGC Assay Protocol Summary: Cells were trypsinized, washed in assay medium (AM, OPTI MEM with 0.5% fetal bovine serum, 0.1 mM nonessential amino acids, 1 mM sodium pyruvate, 10mM HEPES pH 7.3, 100U/ml penicillin, and 100 ug/ml streptomycin) and suspended at […] in AM. Approximately 2500 cells in 5 uL/well was dispensed into 1536-well plates and the cells were incubated overnight at 37 C. 23 nL of compound were delivered by a pin tool and 1 uL of IL-6 (40 pM final concentration in AM) was added. After plates were incubated at 37 C for 5 hrs, 1uL of detector mix (LiveBLAzerTM, Invitrogen) was added, the plates incubated at room temperature for 2.5 hrs, and fluorescence intensity at 460 and 530 nm emissions was measured at 405 nm excitation by an Envision (Perkin Elmer).", "values": [{"smiles": "O=C(O)c1c(Br)c(Br)c(Br)c(Br)c1C1c2ccc(O)cc2Oc2cc(O)ccc21", "Potency": "active: 7.94 µM"}, {"smiles": "COc1ccc(-c2nn3c(COc4ccccc4)nnc3s2)cc1OC", "Potency": "inconclusive: 1.58 µM [activator, full curve, poor fit]"}, {"smiles": "CSc1nc(N)nc(SCC(=O)C23CC4CC(CC(C4)C2)C3)c1C#N", "Potency": "inconclusive: 10 µM [inhibitor, full curve, poor fit]"}, {"smiles": "NS(=O)(=O)c1ccc(N=Nc2cc3ccccc3c(C(=O)O)c2O)cc1", "Potency": "active: 6.31 µM"}, {"smiles": "Cn1c(NCc2ccccc2)nc2c1c(=O)n(Cc1ccc(Br)cc1)c(=O)n2C", "Potency": "active: 15.8 µM"}, {"smiles": "CC1(C)Cc2c(C#N)c(NCCc3ccccc3)nc(-c3ccco3)c2CO1", "Potency": "inconclusive: 15.8 µM [fluorescent, side channel, partial curve]"}, {"smiles": "CCN(CC)CCC[C@H](C)Nc1c2ccc(Cl)cc2nc2ccc(OC)cc12", "Potency": "inconclusive: 12.6 µM [activator, full curve]"}, {"smiles": "O=C1CC(N(O)C2CC(=O)N(Cc3ccccc3)C2=O)C(=O)N1Cc1ccccc1", "note": "(stereo not given)", "Potency": "inconclusive: 15.8 µM [inhibitor, partial curve, poor fit]"}, {"smiles": "Cc1ccc(NC(=O)CSC2=C(C#N)C(c3ccc4c(c3)OCO4)CC(=O)N2)cc1C", "note": "(stereo not given)", "Potency": "inconclusive: 15.8 µM [inhibitor, partial curve, poor fit]"}, {"smiles": "OC[C@@H]1O[C@@H](n2cnc3c(SCc4ccccc4)ncnc32)[C@@H](O)[C@H]1O", "Potency": "inconclusive: 0.398 µM [activator, full curve, poor fit]"}, {"smiles": "O=C1c2ccccc2-c2cc([N+](=O)[O-])c([N+](=O)[O-])cc21", "Potency": "inconclusive: 15.8 µM [cytotoxic, side channel, partial curve, poor fit]"}, {"smiles": "CSc1ncnc2c1ncn2CC(=O)[C@H]1CC[C@H]2[C@H]3CCC4=CC(=O)CC[C@@]4(C)[C@@H]3CC[C@@]12C", "Potency": "active: 2.51 µM"}, {"smiles": "OC[C@@H]1CCC[C@H](n2cnc3c(=S)nc[nH]c32)O1", "activity change, negative = inhibition": "inactive: 3.19%"}, {"smiles": "COc1cccc2c1C(=O)c1c(O)c3c(c(O)c1C2=O)C[C@](O)(C(=O)CO)C[C@H]3O[C@@H]1C[C@H](N)[C@H](O)[C@H](C)O1", "Potency": "inconclusive: 12.6 µM [side channel, falling, partial curve, poor fit]"}, {"smiles": "COc1cc2nc(-c3ccccc3)nc(N3CCCC3)c2cc1OC", "Potency": "inconclusive: 12.6 µM [activator, full curve, poor fit]"}, {"smiles": "C=C1C(=O)O[C@@H]2[C@H]3O[C@]3(C)CCC=C(C)CC[C@@H]12", "Potency": "active: 7.94 µM"}, {"smiles": "FC(F)(F)c1cccc(-c2nc3nc(Cl)c(Cl)nc3[nH]2)c1", "Potency": "inconclusive: 1.58 µM [inhibitor, full curve]"}, {"smiles": "CCCCc1nc(NCCNC(=O)c2ccco2)c(C#N)c2c1CSC(C)(C)C2", "Potency": "inconclusive: 3.98 µM [inhibitor, full curve, poor fit]"}, {"smiles": "CCCCSc1nc(N)c(C#N)c(-c2cccs2)c1C#N", "Potency": "active: 15.8 µM"}, {"smiles": "CCSc1nc(N)c(C#N)c(-c2ccccc2Cl)c1C#N", "Potency": "inconclusive: 25.1 µM [inhibitor, partial curve, poor fit]"}, {"smiles": "NC12CC3CC(CC(C3)C1)C2", "activity change, negative = inhibition": "inconclusive: 14.7%"}, {"smiles": "C=CCNC(=O)C(C#N)c1nc2ccccc2nc1N1CCCCCC1", "note": "(stereo not given)", "Potency": "inconclusive: 63.1 µM [activator, partial curve, poor fit]"}, {"smiles": "Cc1ccc(S(=O)(=O)N2CCN(c3nc(C)c4c(c3C#N)CC(C)(C)OC4)CC2)cc1", "Potency": "inconclusive: 12.6 µM [side channel, falling, partial curve, poor fit]"}, {"smiles": "CC(C)N1CC=C2C(C#N)=C(N)C(C#N)(C#N)C(c3ccccc3)C2C1", "note": "(stereo not given)", "Potency": "inconclusive: 31.6 µM [activator, partial curve, poor fit]"}, {"smiles": "Cc1oc2cc(O)cc(C)c2c(=O)c1-c1cnn(-c2ccccc2)c1", "Potency": "inconclusive: 15.8 µM [inhibitor, partial curve, poor fit]"}, {"smiles": "CCNC(=O)c1cc2c(=O)n3cccc(C)c3nc2n(CCc2ccccc2)c1=N", "Potency": "inconclusive: 12.6 µM [activator, full curve]"}, {"smiles": "ClC(Br)=C(n1cnc2ccccc21)n1cnc2ccccc21", "Potency": "inconclusive: 5.01 µM [activator, full curve]"}, {"smiles": "NC(=Nc1ccccc1)NC(=O)c1nc(Cl)c(N)nc1N", "Potency": "inconclusive: 39.8 µM [activator, partial curve, poor fit]"}, {"smiles": "COc1ccc(C(=O)CCN(C)C)c2ccccc12", "Potency": "inconclusive: 25.1 µM [inhibitor, single point]"}, {"smiles": "N/C(=N\\O)c1cn([C@@H]2O[C@@H](CO)[C@H](O)[C@@H]2O)c2ncnc(NO)c12", "Potency": "inconclusive: 7.94 µM [side channel, falling, partial curve, poor fit]"}, {"smiles": "Cc1c2cnccc2c(C)c2c1c1ccccc1n2CCOC(=O)c1ccccc1", "Potency": "inconclusive: 15.8 µM [side channel, falling, partial curve, poor fit]"}, {"smiles": "CN(C)CCCn1c2c3ccccc3ccc2c2oc(=O)c3ccccc3c21", "Potency": "inconclusive: 31.6 µM [fluorescent, side channel, single point]"}, {"smiles": "O=C1Nc2ccc(I)cc2/C1=C/c1cc(Br)c(O)c(Br)c1", "Potency": "active: 12.6 µM"}, {"smiles": "O=c1cc(-c2ccccc2)oc2c1ccc1ccccc12", "activity change, negative = inhibition": "inconclusive: 37.7%"}, {"smiles": "NCCSc1nc2ccccc2s1", "Potency": "active: 7.94 µM"}, {"smiles": "CCC(=O)Nc1nc(C)c(Oc2ccccc2)c(=O)[nH]1", "activity change, negative = inhibition": "inactive: 7.98%"}, {"smiles": "CN(C)CCCN=c1c2ccccc2n(C)c2[nH]c(=O)n(C)c(=O)c12", "Potency": "inconclusive: 10 µM [rising, full curve]"}, {"smiles": "O=C(Oc1oc(-c2ccco2)nc1C=Nc1ccccc1)c1ccoc1", "Potency": "inconclusive: 12.6 µM [inhibitor, full curve, poor fit]"}, {"smiles": "ClC(=Nc1cccc2ccccc12)N(c1ccccc1)c1ccccc1", "activity change, negative = inhibition": "inactive: 14.2%"}, {"smiles": "Cn1c(N2CCOCC2)nc2c1c(=O)n(Cc1ccc(Cl)c(Cl)c1)c(=O)n2C", "Potency": "inconclusive: 6.31 µM [activator, full curve, poor fit]"}]}]}
